Reference: PubChem BioAssay AID540256 (National Center for Advancing Translational Sciences (NCATS), 2011)
In all, about 300,000 compounds went through this assay and about 3,700 (1.2%) were called active. The inconclusive results got no clear call from the source; some entries with a clear call stand among them for comparison. Calls follow the shape of the full dose curve; tested in HEK293 cells. Where the call is inconclusive, the potency comes from a doubtful curve fit.

assay: qHTS for Inhibitors of binding or entry into cells for Lassa Virus; details: Lassa virus pseudotype entry inhibition, cell reporter; activity change, negative = inhibition: at 37.9 µM (top of the series) unless noted; also: nearly all actives have a fitted effect of over 50% in size
% is scaled to controls: 0 for no effect and ±100 for the full control effect; potency is read from the fitted curve at half-maximal effect.

Row | Structure (SMILES) | Potency | activity change, negative = inhibition
1 | O=S1CCN(Cc2ccc(-c3ccc4ncnc(Nc5ccc(OCc6ccccc6)c(Cl)c5)c4c3)o2)CC1 | inconclusive: 1.99 µM [activator, full curve, poor fit] | –
2 | COc1ccc2c(c1)c(=Cc1ccc(N(C)C)cc1)c1cc(-c3ccccc3)[n+](C)n12 | active: 8.91 µM | –
3 | COc1ccc(S(=O)(=O)N(C)c2ccc(C(=O)N3CCCC3)cc2)cc1 | inconclusive: 35.5 µM [inhibitor, partial curve, poor fit] | –
4 | O=C(CCc1nc(-c2ccccc2)no1)NC1CCCCC1 | – | inactive: 2.14%
5 | Cc1nnc(N2CCC(C(=O)Nc3ccc(F)cc3)CC2)c2nn(-c3ccc(Cl)cc3)c(C)c12 | inconclusive: 35.5 µM [inhibitor, single point] | –
6 | Cc1ccc2c3c(cccc13)-c1ccccc1C2=O | inconclusive: 14.1 µM [activator, partial curve, poor fit] | –
7 | Cc1cc(Sc2ncnc(N)c2[N+](=O)[O-])ncn1 | active: 11.2 µM | –
8 | C=CCN(C(=O)CC(NC(C)=O)c1ccccc1)c1nc(-c2ccc(S(C)(=O)=O)cc2)cs1 (stereo not drawn) | inconclusive: 20 µM [inhibitor, single point] | –
9 | C[n+]1cccc2c(Br)ccc([O-])c21 | inconclusive: 10 µM [inhibitor, partial curve] | –
10 | COc1cccc(/C=C2/SC(=S)N(CCC(=O)N3CCOCC3)C2=O)c1 | inconclusive: 11.2 µM [inhibitor, partial curve, poor fit] | –
11 | O=S1(=O)CC(N2CCN(CCO)CC2)CN1Cc1cn(Cc2ccccc2C(F)(F)F)nn1 (stereo not drawn) | inconclusive: 35.3 µM [activator, single point] | –
12 | CCCCCCCCNc1ncnc2ccccc12 | inconclusive: 0.517 µM [inhibitor, full curve] | –
13 | COc1ccc2[nH]c3c(N4CCc5ccccc5C4)ncnc3c2c1 | inconclusive: 0.631 µM [inhibitor, full curve, poor fit] | –
14 | COc1ccc(NC(=O)CN2CCC(C(N)=O)(N3CCCCC3)CC2)c(OC)c1 | – | inactive: 1.98%
15 | CN(C)c1ccc(/C(=N\O)C(F)(F)F)cc1 | inconclusive: 20.6 µM [inhibitor, single point] | –
16 | CCC(C(=O)N1CCN(c2ccccc2OC)CC1)c1ccccc1 (stereo not drawn) | inconclusive: 7.31 µM [inhibitor, partial curve] | –
17 | COc1cc(/C=N/NC(=O)COc2ccc(C)cc2)ccc1OC(=O)c1cccs1 | active: 9.2 µM | –
18 | O=C(Nc1cccnc1)C1CCC(CNS(=O)(=O)c2cccc3nsnc23)CC1 (stereo not drawn) | inconclusive: 35.5 µM [inhibitor, single point] | –
19 | N/C(=N\OC(=O)c1ccc2c(c1)OCO2)c1ccc(Br)cc1 | inconclusive: 20 µM [inhibitor, single point] | –
20 | Cc1ccc(NC(=S)NCCc2ccc(S(N)(=O)=O)cc2)cc1C | – | inactive: -0.501%
21 | CCC1(c2ccccc2)NC(=O)N(CC(=O)Nc2cc(S(=O)(=O)N3CCCCC3)ccc2OC(C)C)C1=O (stereo not drawn) | – | inactive: -14.4%
22 | CCOc1ccc(-c2nonc2NC(=O)c2ccco2)cc1 | – | inactive: 14.4% [at 46.1 µM]
23 | CCCCOC(=O)/C(C#N)=C/c1ccc(-c2cccc(C(F)(F)F)c2)o1 | inconclusive: 2.24 µM [inhibitor, single point] | –

Row | Structure (SMILES) | Potency | activity change, negative = inhibition
24 | CC(c1ccccc1)N(CCC(c1ccccc1)C1CCOC(C)(C)C1)C(=O)c1ccco1 (stereo not drawn) | inconclusive: 3.55 µM [inhibitor, partial curve, poor fit] | –
25 | CN(CC(=O)Nc1ccccc1Cl)C(=O)COC(=O)c1ccc(S(=O)(=O)C(F)F)cc1 | – | inactive: -10.4%
26 | COC(=O)c1ccc2c(c1)/C(=C/c1cc(Br)c(O)c(Br)c1)C(=O)N2 | inconclusive: 14.1 µM [inhibitor, partial curve, poor fit] | –
27 | Cc1nn(Cc2ccccc2)c(Cl)c1C(=O)OCc1nnc(-c2ccccc2)o1 | inconclusive: 29.1 µM [inhibitor, single point] | –
28 | OC[C@H]1O[C@H](C#Cc2ccccc2)C=C[C@@H]1O | inconclusive: 0.0042 µM [inhibitor, full curve, poor fit] | –
29 | CCOC(=O)c1c(NC(=O)CSc2nc3c(c(=O)n(C)c(=O)n3C)n2C(C)C)sc(C)c1C | – | inactive: 13.7%
30 | S=C(Nc1ccccc1)c1ccccn1 | inconclusive: 5.01 µM [activator, partial curve, poor fit] | –
31 | CN1CCN(S(=O)(=O)c2cc(C(F)(F)F)ccc2Cl)CC1 | – | inactive: 18.9%
32 | CCOc1ccc(-c2nnc(NC3=NCCCCC3)o2)cc1 | inconclusive: 0.501 µM [activator, partial curve, poor fit] | –
33 | COc1ccc2[nH]c(C)c(CCNCc3cc(OC)c(OC)c(OC)c3)c2c1 | – | inactive: -27.9%
34 | CC[n+]1c(/C=C2/C=C(C)CC(C)(C)C2)sc2ccc(OC)cc21 | inconclusive: 12.6 µM [inhibitor, partial curve, poor fit] | –
35 | Cc1ccccc1OCC(=O)Nc1c2c(nn1C(C)(C)C)CS(=O)(=O)C2 | inconclusive: 1.26 µM [activator, single point] | –
36 | CCOC(=O)COn1c(=O)c(-c2ccccc2)[n+]([O-])c2ccccc21 | – | inactive: -0.454% [at 46.1 µM]
37 | Cc1cc(NC(=O)CC2CCCC2)ccc1Br | inconclusive: 10 µM [inhibitor, partial curve, poor fit] | –
38 | CC(C)CSc1nc2ccccc2n1CC(=O)O | inconclusive: 10 µM [activator, single point] | –
39 | O=[N+]([O-])c1ccccc1OCCN1CCOCC1 | inconclusive: 1.26 µM [inhibitor, single point] | –
40 | O=C(CCn1cnnn1)Nc1ccccc1 | inconclusive: 0.891 µM [inhibitor, partial curve, poor fit] | –
41 | Cc1ccc(-c2c(C)n3c4c(=O)n(C)c(=O)n(C)c4nc3n2CCCO)cc1 | active: 8.91 µM | –
42 | CC12CCC(C(=O)NCCCN3CCOCC3)(OC1=O)C2(C)C (stereo not drawn) | inconclusive: 0.164 µM [activator, full curve, poor fit] | –
43 | COc1ccc(NC(=O)CSc2ccc(NC(C)=O)cc2)cc1S(=O)(=O)N1CCOCC1 | inconclusive: 5.62 µM [inhibitor, single point] | –
44 | Cc1cccc(C(=O)Nc2ccc(N3CCN(S(C)(=O)=O)CC3)cc2)c1 | – | inactive: 31.6% [at 46.1 µM]
45 | COc1ccc(NC(=S)N2CCCC2)cc1 | inconclusive: 35.5 µM [activator, single point] | –
46 | CC1CCCN(Cc2c(O)ccc3c(=O)c(-c4ccc(Cl)cc4)c(C(F)(F)F)oc23)C1 (stereo not drawn) | – | inactive: 22.8% [at 46.1 µM]

Quoted from the listing.
For activity change, negative = inhibition, `Cc1cccc(C(=O)Nc2ccc(N3CCN(S(C)(=O)=O)CC3)cc2)c1` has the entry inactive: 31.6% [at 46.1 µM]
For Potency, `Cc1cc(NC(=O)CC2CCCC2)ccc1Br` has the entry inconclusive: 10 µM [inhibitor, partial curve, poor fit]
For activity change, negative = inhibition, `CCOC(=O)COn1c(=O)c(-c2ccccc2)[n+]([O-])c2ccccc21` has the entry inactive: -0.454% [at 46.1 µM]
For Potency, `Cc1ccccc1OCC(=O)Nc1c2c(nn1C(C)(C)C)CS(=O)(=O)C2` has the entry inconclusive: 1.26 µM [activator, single point]

(listing goes on)

Row | Structure (SMILES) | Potency | activity change, negative = inhibition
47 | CCOC(=O)C1CCCN(C(=O)C2CCN(S(=O)(=O)c3c(C)noc3/C=C/c3ccc(C)cc3)CC2)C1 (stereo not drawn) | inconclusive: 6.31 µM [inhibitor, full curve, poor fit] | –
48 | COc1ccccc1CNC(=O)c1cc2cc(S(=O)(=O)N3CCCCC3)ccc2n1C | inconclusive: 31.6 µM [inhibitor, partial curve, poor fit] | –
49 | Cc1c(C(=O)Nc2ccccc2)cn2c(nc3ccccc32)c1C#N | – | inactive: 7.17%
50 | Cc1ccc(NNC(=O)C2CCC2)cc1C | inconclusive: 3.16 µM [inhibitor, partial curve, poor fit] | –
51 | Nn1c(=S)[nH]c2sc3c(c2c1=O)CCCC3 | inconclusive: 2.82 µM [activator, full curve] | –
52 | O=C1CCCN1c1ccc(S(=O)(=O)NCc2ccco2)cc1 | inconclusive: 1.26 µM [activator, single point] | –
53 | COc1ccc(/C=C2/CCC(CN3CCOCC3)C2=O)cc1 (stereo not drawn) | active: 12.6 µM | –
54 | O=C1NC(=O)C(=Cc2ccc(SC3CCCCC3)o2)C(=O)N1 | – | inactive: -27.9%
55 | CCOC(=O)c1c(NC(=O)CSc2nc3cc(Cl)ccc3s2)sc(C(C)=O)c1C | – | inactive: 10.3%
56 | Cc1cccc(C)c1OCC(=O)Nc1nnc(C2CCCO2)s1 (stereo not drawn) | inconclusive: 7.31 µM [inhibitor, single point] | –
57 | CCOC(=O)Cn1c2c(c(=N)c3c1CCC3)CCCC2 | – | inactive: -19.2%
58 | COc1cc(/C=C2\SC(=O)N(CCN)C2=O)ccc1OS(=O)(=O)c1cc(C)ccc1C | inconclusive: 35.5 µM [inhibitor, partial curve, poor fit] | –
59 | O=C(N/N=C/c1coc2ccccc2c1=O)c1cc(Br)ccc1O | – | inconclusive: 15.3% [activator]
60 | CCOC(=O)C1CCN(c2ncnc3c2c(-c2ccccc2)cn3-c2ccc(C)c(Cl)c2)CC1 | inconclusive: 1 µM [inhibitor, full curve, poor fit] | –
61 | CCC(C)(C)NC(=O)CN(CC1CCCO1)C(=O)CNS(=O)(=O)c1ccccc1 (stereo not drawn) | – | inactive: -9.13%
62 | CCc1nc(N2CCN(C(=O)c3ccco3)CC2)c2c3c(sc2n1)CCCC3 | inconclusive: 11.6 µM [inhibitor, partial curve, poor fit] | –
63 | COc1ccc(-n2c(-c3ccco3)nc3ccccc3c2=O)cc1 | inconclusive: 35.5 µM [inhibitor, single point] | –
64 | COc1nnc(-c2ccc(N3CCCCC3)c(NC(=O)c3ccc(Cl)cc3)c2)c2ccccc12 | – | inactive: 2.36% [at 46.1 µM]
65 | COc1ccc(-c2cc(C(F)(F)F)nc(SCC(=O)Nc3ccc(C(C)=O)cc3)n2)cc1 | – | inactive: -12.7% [at 46.1 µM]
66 | COc1ccc(OC)c(/C=N/NC(=O)c2[nH]ncc2Br)c1 | inconclusive: 0.631 µM [inhibitor, partial curve, poor fit] | –
67 | O=C(OCC(=O)N1CCc2ccccc21)c1ccccc1[N+](=O)[O-] | inconclusive: 35.5 µM [inhibitor, single point] | –
68 | O=C(O)C(=O)/C(=C\c1ccc(Cl)cc1)c1ccc2ccccc2n1 | inconclusive: 7.94 µM [inhibitor, partial curve] | –
